Our source for the binding values is article doi:10.1101/2022.10.19.512833 (bioRxiv, 2022).

The chains behind the UniProt entries cited, without tags or fusion partners. Where a name states a change or a piece, a line headed by the entry shows the natural chain unless it says otherwise. A line that says so, or that is headed by a name, gives the form on record, which may keep a tag or linker.
NFE2L1_(228-243) biotinylated peptide, double repeat (Q14494, form named): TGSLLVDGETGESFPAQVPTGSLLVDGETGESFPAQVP
PAK1_(88-103) biotinylated peptide, double repeat (Q13153, form named): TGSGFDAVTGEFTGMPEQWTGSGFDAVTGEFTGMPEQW
UniProt Q14145: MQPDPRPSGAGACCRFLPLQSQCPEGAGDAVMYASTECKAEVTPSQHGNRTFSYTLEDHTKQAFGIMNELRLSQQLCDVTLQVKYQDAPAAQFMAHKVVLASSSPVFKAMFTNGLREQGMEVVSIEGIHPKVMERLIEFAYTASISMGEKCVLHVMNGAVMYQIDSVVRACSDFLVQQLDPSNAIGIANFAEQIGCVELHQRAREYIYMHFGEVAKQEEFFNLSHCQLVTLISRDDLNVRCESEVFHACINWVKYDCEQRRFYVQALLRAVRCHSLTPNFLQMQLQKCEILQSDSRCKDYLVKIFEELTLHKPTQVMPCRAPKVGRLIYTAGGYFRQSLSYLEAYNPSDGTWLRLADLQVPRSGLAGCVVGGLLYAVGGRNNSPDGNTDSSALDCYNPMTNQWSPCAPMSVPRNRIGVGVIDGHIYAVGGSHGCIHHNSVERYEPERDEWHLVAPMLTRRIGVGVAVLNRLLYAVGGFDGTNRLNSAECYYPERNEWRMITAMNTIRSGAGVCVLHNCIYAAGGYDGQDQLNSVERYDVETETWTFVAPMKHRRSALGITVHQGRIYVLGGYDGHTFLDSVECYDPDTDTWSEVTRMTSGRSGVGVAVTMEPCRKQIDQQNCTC
UniProt P06748: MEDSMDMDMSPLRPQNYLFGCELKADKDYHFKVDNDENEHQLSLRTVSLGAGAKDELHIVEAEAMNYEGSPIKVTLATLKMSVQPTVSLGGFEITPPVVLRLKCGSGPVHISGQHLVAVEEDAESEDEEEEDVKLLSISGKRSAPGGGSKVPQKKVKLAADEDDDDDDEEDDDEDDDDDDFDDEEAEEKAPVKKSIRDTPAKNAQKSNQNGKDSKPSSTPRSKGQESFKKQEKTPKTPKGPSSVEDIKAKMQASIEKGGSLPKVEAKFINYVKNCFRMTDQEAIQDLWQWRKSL
UniProt Q00987: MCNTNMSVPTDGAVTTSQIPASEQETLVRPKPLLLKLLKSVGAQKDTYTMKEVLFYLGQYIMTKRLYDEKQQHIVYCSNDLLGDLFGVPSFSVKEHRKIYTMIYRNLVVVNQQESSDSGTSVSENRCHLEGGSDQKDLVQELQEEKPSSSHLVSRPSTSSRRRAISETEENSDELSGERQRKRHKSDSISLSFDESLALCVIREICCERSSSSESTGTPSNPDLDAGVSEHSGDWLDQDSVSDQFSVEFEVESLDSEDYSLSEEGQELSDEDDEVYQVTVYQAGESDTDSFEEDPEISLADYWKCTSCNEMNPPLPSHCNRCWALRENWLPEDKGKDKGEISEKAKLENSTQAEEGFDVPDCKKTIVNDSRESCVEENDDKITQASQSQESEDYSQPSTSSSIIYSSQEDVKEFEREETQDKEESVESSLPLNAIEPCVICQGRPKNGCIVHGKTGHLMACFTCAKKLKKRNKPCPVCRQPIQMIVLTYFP
UniProt P15927: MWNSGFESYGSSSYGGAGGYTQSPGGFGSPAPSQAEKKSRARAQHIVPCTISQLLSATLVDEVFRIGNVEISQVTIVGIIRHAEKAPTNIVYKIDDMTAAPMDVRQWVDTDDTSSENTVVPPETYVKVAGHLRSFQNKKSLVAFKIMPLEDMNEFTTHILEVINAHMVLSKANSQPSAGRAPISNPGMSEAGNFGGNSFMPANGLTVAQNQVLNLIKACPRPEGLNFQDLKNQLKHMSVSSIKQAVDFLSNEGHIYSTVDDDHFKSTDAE
UniProt P68400: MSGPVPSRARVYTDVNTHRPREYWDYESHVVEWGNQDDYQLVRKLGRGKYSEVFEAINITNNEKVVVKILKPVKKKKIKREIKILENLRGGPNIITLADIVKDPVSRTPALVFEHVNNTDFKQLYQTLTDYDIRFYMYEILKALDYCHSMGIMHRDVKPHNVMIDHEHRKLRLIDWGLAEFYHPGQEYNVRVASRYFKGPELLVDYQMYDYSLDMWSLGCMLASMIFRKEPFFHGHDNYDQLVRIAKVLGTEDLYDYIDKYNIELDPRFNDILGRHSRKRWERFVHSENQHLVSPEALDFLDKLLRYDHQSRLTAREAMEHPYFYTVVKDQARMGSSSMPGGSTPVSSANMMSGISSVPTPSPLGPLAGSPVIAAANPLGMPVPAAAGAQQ
UniProt P27694: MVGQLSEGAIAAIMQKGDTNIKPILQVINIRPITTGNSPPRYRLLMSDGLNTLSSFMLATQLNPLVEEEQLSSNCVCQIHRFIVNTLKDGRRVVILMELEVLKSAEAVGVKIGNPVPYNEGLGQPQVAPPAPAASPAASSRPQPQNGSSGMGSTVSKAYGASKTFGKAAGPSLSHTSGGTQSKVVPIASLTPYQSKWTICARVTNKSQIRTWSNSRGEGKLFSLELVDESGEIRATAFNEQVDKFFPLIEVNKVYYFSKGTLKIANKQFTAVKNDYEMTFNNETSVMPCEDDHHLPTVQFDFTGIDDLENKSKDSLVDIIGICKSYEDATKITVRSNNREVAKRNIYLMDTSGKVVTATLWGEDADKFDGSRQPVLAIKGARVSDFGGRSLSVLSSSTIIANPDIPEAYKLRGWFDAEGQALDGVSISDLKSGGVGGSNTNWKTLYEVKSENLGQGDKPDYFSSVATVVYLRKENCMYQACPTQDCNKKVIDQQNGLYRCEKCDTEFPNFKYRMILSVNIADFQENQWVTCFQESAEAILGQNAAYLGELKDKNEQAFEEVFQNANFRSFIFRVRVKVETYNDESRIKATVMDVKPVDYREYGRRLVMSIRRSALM

Holding throughout (test): affinity purification with mass spectrometry
The target in assay [1] is NFE2L1_(228-243) biotinylated peptide, double repeat (human) (UniProt Q14494).
Assay [2] concerns the target NFE2L1_(228-243) biotinylated peptide, single repeat (human) (UniProt Q14494).
The target of assay [3] is PAK1_(88-103) biotinylated peptide, double repeat (human) (UniProt Q13153).
In assay [4] the target is PAK1_(88-103) biotinylated peptide, single repeat (human) (UniProt Q13153).
Assay [5] concerns the target T1, PLEC_(4459-4474) biotinylated peptide, double repeat (human) (UniProt Q15149).
T1 sequence (peptide, N-terminal biotin; C-terminal amide): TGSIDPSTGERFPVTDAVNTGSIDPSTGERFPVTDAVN

Assay [6] has as its target T2, PLEC_(4459-4474) biotinylated peptide, single repeat (human) (UniProt Q15149).
T2 sequence (peptide, N-terminal biotin; C-terminal amide): TGSIDPSTGERFPVTDAVN

Assay [7] has as its target T3, NUMB_(616-631) biotinylated peptide, double repeat (human) (UniProt P49757).
T3 sequence (peptide, N-terminal biotin; C-terminal amide): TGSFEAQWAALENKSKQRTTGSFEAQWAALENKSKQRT

For assay [8], the target named is T4, NUMB_(616-631) biotinylated peptide, single repeat (human) (UniProt P49757).
T4 sequence (peptide, N-terminal biotin; C-terminal amide): TGSFEAQWAALENKSKQRT

The target of assay [9] is T5, RNF115_(69-84) biotinylated peptide, double repeat (human) (UniProt Q9Y4L5).
T5 sequence (peptide, N-terminal biotin; C-terminal amide): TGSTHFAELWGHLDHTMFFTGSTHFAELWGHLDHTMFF

The target in assay [10] is T6, RNF115_(69-84) biotinylated peptide, single repeat (human) (UniProt Q9Y4L5).
T6 sequence (peptide, N-terminal biotin; C-terminal amide): TGSTHFAELWGHLDHTMFF

No constants are given. Whether binding was seen depends on the method and setting. Binding seen in cells or lysates may run through a third protein. Here binding means that the protein was enriched with, or labelled near, the bait; the list need not be complete. For some of these results: No binding means not detected with the bait.

For the molecule KEAP1 (from UniProt Q14145 1-624), the binding entry in [1], in [2], in assay [3], in assay [4], in assay [5] and in assay [6] was “binds” throughout.
For the molecule NPM1 (from UniProt P06748 1-294), the binding entry in assay [1] and in [5] was “binds” throughout.
In the case of “E3 ubiquitin-protein ligase MDM2 (from UniProt Q00987 1-491)”, the binding result in assay [7], in assay [8], in assay [9] and in assay [10] was “no binding” in each case.
For the molecule RPA2 (from UniProt P15927 1-270), the binding result in [3] and in assay [4] was “binds” in each case.
Consider CSNK2A1 (from UniProt P68400 1-391), for which the binding result in assay [1] and in assay [5] was “binds” throughout.
Consider RPA1 (from UniProt P27694 1-616), for which the binding result in assay [3] and in [4] was “binds” each time.

B1: BANF1 (protein, UniProt O75531 1-89)
chain: MTTSQKHRDFVAEPMGEKPVGSLAGIGEVLGKKLEERGFDKAYVVLGQFLVLKKDEDLFREWLKDTCGANAKQSRDCFGCLREWCDAFL
As to B1, the binding result in [3] and in [4] was “binds” throughout.

B2: ATN1 (protein, UniProt P54259 1-1190)
chain: MKTRQNKDSMSMRSGRKKEAPGPREELRSRGRASPGGVSTSSSDGKAEKSRQTAKKARVEEASTPKVNKQGRSEEISESESEETNAPKKTKTEQELPRPQSPSDLDSLDGRSLNDDGSSDPRDIDQDNRSTSPSIYSPGSVENDSDSSSGLSQGPARPYHPPPLFPPSPQPPDSTPRQPEASFEPHPSVTPTGYHAPMEPPTSRMFQAPPGAPPPHPQLYPGGTGGVLSGPPMGPKGGGAASSVGGPNGGKQHPPPTTPISVSSSGASGAPPTKPPTTPVGGGNLPSAPPPANFPHVTPNLPPPPALRPLNNASASPPGLGAQPLPGHLPSPHAMGQGMGGLPPGPEKGPTLAPSPHSLPPASSSAPAPPMRFPYSSSSSSSAAASSSSSSSSSSASPFPASQALPSYPHSFPPPTSLSVSNQPPKYTQPSLPSQAVWSQGPPPPPPYGRLLANSNAHPGPFPPSTGAQSTAHPPVSTHHHHHQQQQQQQQQQQQQQQQQQQHHGNSGPPPPGAFPHPLEGGSSHHAHPYAMSPSLGSLRPYPPGPAHLPPPHSQVSYSQAGPNGPPVSSSSNSSSSTSQGSYPCSHPSPSQGPQGAPYPFPPVPTVTTSSATLSTVIATVASSPAGYKTASPPGPPPYGKRAPSPGAYKTATPPGYKPGSPPSFRTGTPPGYRGTSPPAGPGTFKPGSPTVGPGPLPPAGPSGLPSLPPPPAAPASGPPLSATQIKQEPAEEYETPESPVPPARSPSPPPKVVDVPSHASQSARFNKHLDRGFNSCARSDLYFVPLEGSKLAKKRADLVEKVRREAEQRAREEKEREREREREKEREREKERELERSVKLAQEGRAPVECPSLGPVPHRPPFEPGSAVATVPPYLGPDTPALRTLSEYARPHVMSPGNRNHPFYVPLGAVDPGLLGYNVPALYSSDPAAREREREARERDLRDRLKPGFEVKPSELEPLHGVPGPGLDPFPRHGGLALQPGPPGLHPFPFHPSLGPLERERLALAAGPALRPDMSYAERLAAERQHAERVAALGNDPLARLQMLNVTPHHHQHSHIHSHLHLHQQDAIHAASASVHPLIDPLASGSHLTRIPYPAGTLPNPLLPHPLHENEVLRHQLFAAPYRDLPASLSAPMSAAHQLQAMHAQSAELQRLALEQQQWLHAHHPLHSVPLPAQEDYYSHLKKESDKPL
In the case of B2, the binding entry in [9] and in assay [10] was “binds” throughout.
